Assay [1] addresses T1, Flag-LRIG1 (UniProt Q96JA1).
T1 sequence (looked up): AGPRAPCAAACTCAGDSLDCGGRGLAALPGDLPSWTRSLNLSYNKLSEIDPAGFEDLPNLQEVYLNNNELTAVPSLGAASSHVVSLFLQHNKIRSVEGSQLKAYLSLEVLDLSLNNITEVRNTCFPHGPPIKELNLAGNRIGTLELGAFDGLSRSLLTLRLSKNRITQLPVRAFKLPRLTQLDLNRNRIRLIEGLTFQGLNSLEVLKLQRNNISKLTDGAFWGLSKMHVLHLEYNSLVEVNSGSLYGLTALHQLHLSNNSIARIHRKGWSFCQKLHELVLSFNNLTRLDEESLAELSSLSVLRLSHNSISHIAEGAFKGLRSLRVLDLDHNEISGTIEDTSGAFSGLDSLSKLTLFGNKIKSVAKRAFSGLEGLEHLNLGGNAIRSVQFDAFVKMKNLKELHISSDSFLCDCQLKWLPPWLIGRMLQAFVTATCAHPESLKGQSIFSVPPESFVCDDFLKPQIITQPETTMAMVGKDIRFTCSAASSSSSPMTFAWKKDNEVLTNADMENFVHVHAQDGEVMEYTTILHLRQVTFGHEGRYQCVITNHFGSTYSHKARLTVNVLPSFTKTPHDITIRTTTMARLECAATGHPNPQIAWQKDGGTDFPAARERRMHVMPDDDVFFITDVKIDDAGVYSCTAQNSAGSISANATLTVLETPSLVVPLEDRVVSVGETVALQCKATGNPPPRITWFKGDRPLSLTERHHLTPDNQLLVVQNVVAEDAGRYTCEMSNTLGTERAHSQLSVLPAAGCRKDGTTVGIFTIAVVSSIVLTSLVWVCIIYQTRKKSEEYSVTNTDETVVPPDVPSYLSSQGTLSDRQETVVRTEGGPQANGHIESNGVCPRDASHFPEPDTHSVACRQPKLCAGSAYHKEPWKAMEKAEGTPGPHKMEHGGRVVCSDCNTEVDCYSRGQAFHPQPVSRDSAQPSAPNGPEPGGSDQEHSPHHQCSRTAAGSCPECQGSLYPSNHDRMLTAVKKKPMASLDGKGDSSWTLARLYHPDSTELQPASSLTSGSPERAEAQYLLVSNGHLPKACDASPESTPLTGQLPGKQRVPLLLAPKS
As to the kind of experiment: co-immunoprecipitation and immunoblot, MKN45 cells overexpressing LRIG1, after anti-c-Met antibody.

Assay [2] concerns the target T1, Flag-LRIG1. As to the kind of experiment: co-immunoprecipitation: anti-Flag pull-down of Flag-LRIG1 from MKN45 cell lysate, immunoblot with anti-USP8; with and without L3-1Y/IgG2 5 ug/ml for 1 h. A general note: A western blot detects proteins with antibodies after separation by electrophoresis.

These are yes or no findings as the source states them, for the method shown. In cells and extracts the contact can be indirect. Some results given as binding are weak or reduced against the parent protein; the word gives no strength. Where a sequence is shown, tags or fusion partners need not be part of it.

B1: USP8 (NP_001122082: 서열번호 109) (enzyme)
chain: MPAVASVPKELYLSSSLKDLNKKTEVKPEKISTKSYVHSALKIFKTAEECRLDRDEERAYVLYMKYVTVYNLIKKRPDFKQQQDYFHSILGPGNIKKAVEEAERLSESLKLRYEEAEVRKKLEEKDRQEEAQRLQQKRQETGREDGGTLAKGSLENVLDSKDKTQKSNGEKNEKCETKEKGAITAKELYTMMTDKNISLIIMDARRMQDYQDSCILHSLSVPEEAISPGVTASWIEAHLPDDSKDTWKKRGNVEYVVLLDWFSSAKDLQIGTTLRSLKDALFKWESKTVLRNEPLVLEGGYENWLLCYPQYTTNAKVTPPPRRQNEEVSISLDFTYPSLEESIPSKPAAQTPPASIEVDENIELISGQNERMGPLNISTPVEPVAASKSDVSPIIQPVPSIKNVPQIDRTKKPAVKLPEEHRIKSESTNHEQQSPQSGKVIPDRSTKPVVFSPTLMLTDEEKARIHAETALLMEKNKQEKELRERQQEEQKEKLRKEEQEQKAKKKQEAEENEITEKQQKAKEEMEKKESEQAKKEDKETSAKRGKEITGVKRQSKSEHETSDAKKSVEDRGKRCPTPEIQKKSTGDVPHTSVTGDSGSGKPFKIKGQPESGILRTGTFREDTDDTERNKAQREPLTRARSEEMGRIVPGLPSGWAKFLDPITGTFRYYHSPTNTVHMYPPEMAPSSAPPSTPPTHKAKPQIPAERDREPSKLKRSYSSPDITQAIQEEEKRKPTVTPTVNRENKPTCYPKAEISRLSASQIRNLNPVFGGSGPALTGLRNLGNTCYMNSILQCLCNAPHLADYFNRNCYQDDINRSNLLGHKGEVAEEFGIIMKALWTGQYRYISPKDFKITIGKINDQFAGYSQQDSQELLLFLMDGLHEDLNKADNRKRYKEENNDHLDDFKAAEHAWQKHKQLNESIIVALFQGQFKSTVQCLTCHKKSRTFEAFMYLSLPLASTSKCTLQDCLRLFSKEEKLTDNNRFYCSHCRARRDSLKKIEIWKLPPVLLVHLKRFSYDGRWKQKLQTSVDFPLENLDLSQYVIGPKNNLKKYNLFSVSNHYGGLDGGHYTAYCKNAARQRWFKFDDHEVSDISVSSVKSSAAYILFYTSLGPRVTDVAT
As for B1, the binding entry in the assay with Flag-LRIG1 [1] and in the assay with Flag-LRIG1 [2] was “binds” in each case.
